Measurements as given in publication PMC7857027.
These are yes or no findings as the source states them, for the method shown. Binding seen in cells or lysates may run through a third protein. Some results given as binding are weak or reduced against the parent protein; the word gives no strength.

By UniProt entry, the sequences of proteins in these tests, tags left out. Where a name states a change or a piece, a line headed by the entry shows the natural chain unless it says otherwise. Chains listed by the source or under a name are the forms on record and can include a tag or linker. Residues count along the entry.
UniProt P14902: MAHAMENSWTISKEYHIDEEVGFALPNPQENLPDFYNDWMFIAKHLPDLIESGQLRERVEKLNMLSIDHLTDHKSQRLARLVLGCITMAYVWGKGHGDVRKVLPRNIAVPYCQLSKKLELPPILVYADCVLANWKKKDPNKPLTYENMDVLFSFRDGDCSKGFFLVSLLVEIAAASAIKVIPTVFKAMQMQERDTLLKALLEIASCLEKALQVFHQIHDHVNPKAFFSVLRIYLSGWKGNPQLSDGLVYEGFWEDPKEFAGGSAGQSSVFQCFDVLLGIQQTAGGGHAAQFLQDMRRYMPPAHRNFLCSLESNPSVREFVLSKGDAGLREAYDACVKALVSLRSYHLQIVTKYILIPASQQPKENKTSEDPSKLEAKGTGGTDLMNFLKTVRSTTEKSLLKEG
truncated GST-fused IDO1 (45 amino acids at the N-terminus removed): residues 46-403 of P14902

What was measured:
[1] = molecular target: T1, GBP1 (human (endogenous in A549)) (UniProt P32455); assay: co-IP; A549 cell lysates after transfection of Flag-IDO1; anti-flag magnetic beads, GBP1 detected; reciprocal capture by GBP1
T1 sequence: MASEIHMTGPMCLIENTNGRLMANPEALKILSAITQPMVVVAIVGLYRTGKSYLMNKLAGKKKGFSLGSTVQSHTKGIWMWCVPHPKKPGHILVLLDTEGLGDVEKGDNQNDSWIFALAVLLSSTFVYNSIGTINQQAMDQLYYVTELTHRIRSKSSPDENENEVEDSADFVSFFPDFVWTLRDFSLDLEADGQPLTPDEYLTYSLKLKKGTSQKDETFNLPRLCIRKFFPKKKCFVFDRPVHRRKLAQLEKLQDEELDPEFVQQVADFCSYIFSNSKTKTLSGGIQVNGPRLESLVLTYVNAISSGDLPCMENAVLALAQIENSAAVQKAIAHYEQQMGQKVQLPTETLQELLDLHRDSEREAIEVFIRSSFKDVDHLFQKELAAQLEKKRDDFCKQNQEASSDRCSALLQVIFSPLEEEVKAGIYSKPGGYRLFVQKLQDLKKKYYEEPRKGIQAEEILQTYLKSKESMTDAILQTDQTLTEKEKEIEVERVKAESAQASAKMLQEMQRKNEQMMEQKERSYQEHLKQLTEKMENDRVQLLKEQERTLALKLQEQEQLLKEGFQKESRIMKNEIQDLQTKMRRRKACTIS

[2] = molecular target: Flag-tagged IDO1 (indoleamine 2,3-dioxygenase 1) (UniProt P14902); assay: as above
GST fused IDO1 = GST fused IDO1 (UniProt P14902); assay: pull-down; GST pull-down in vitro: GST-fused IDO1 (whole or truncated) with in vitro transcribed GBP1; only the target purified
[3] = molecular target: truncated GST-fused IDO1 (45 amino acids at the N-terminus removed) (UniProt P14902); assay: as above

For “Flag-tagged IDO1 (indoleamine 2,3-dioxygenase 1) (from UniProt P14902 1-403) (enzyme)”, the binding [1] was “binds”.

B1: GBP1 (protein, UniProt P32455 1-592)
chain: MASEIHMTGPMCLIENTNGRLMANPEALKILSAITQPMVVVAIVGLYRTGKSYLMNKLAGKKKGFSLGSTVQSHTKGIWMWCVPHPKKPGHILVLLDTEGLGDVEKGDNQNDSWIFALAVLLSSTFVYNSIGTINQQAMDQLYYVTELTHRIRSKSSPDENENEVEDSADFVSFFPDFVWTLRDFSLDLEADGQPLTPDEYLTYSLKLKKGTSQKDETFNLPRLCIRKFFPKKKCFVFDRPVHRRKLAQLEKLQDEELDPEFVQQVADFCSYIFSNSKTKTLSGGIQVNGPRLESLVLTYVNAISSGDLPCMENAVLALAQIENSAAVQKAIAHYEQQMGQKVQLPTETLQELLDLHRDSEREAIEVFIRSSFKDVDHLFQKELAAQLEKKRDDFCKQNQEASSDRCSALLQVIFSPLEEEVKAGIYSKPGGYRLFVQKLQDLKKKYYEEPRKGIQAEEILQTYLKSKESMTDAILQTDQTLTEKEKEIEVERVKAESAQASAKMLQEMQRKNEQMMEQKERSYQEHLKQLTEKMENDRVQLLKEQERTLALKLQEQEQLLKEGFQKESRIMKNEIQDLQTKMRRRKACTIS
With B1 the binding [2] was “binds”.

B2: in vitro transcribed GBP1 (protein, UniProt P32455 1-592)
chain: MASEIHMTGPMCLIENTNGRLMANPEALKILSAITQPMVVVAIVGLYRTGKSYLMNKLAGKKKGFSLGSTVQSHTKGIWMWCVPHPKKPGHILVLLDTEGLGDVEKGDNQNDSWIFALAVLLSSTFVYNSIGTINQQAMDQLYYVTELTHRIRSKSSPDENENEVEDSADFVSFFPDFVWTLRDFSLDLEADGQPLTPDEYLTYSLKLKKGTSQKDETFNLPRLCIRKFFPKKKCFVFDRPVHRRKLAQLEKLQDEELDPEFVQQVADFCSYIFSNSKTKTLSGGIQVNGPRLESLVLTYVNAISSGDLPCMENAVLALAQIENSAAVQKAIAHYEQQMGQKVQLPTETLQELLDLHRDSEREAIEVFIRSSFKDVDHLFQKELAAQLEKKRDDFCKQNQEASSDRCSALLQVIFSPLEEEVKAGIYSKPGGYRLFVQKLQDLKKKYYEEPRKGIQAEEILQTYLKSKESMTDAILQTDQTLTEKEKEIEVERVKAESAQASAKMLQEMQRKNEQMMEQKERSYQEHLKQLTEKMENDRVQLLKEQERTLALKLQEQEQLLKEGFQKESRIMKNEIQDLQTKMRRRKACTIS
For B2, the binding (GST fused IDO1) was “binds” and the binding [3] was “binds”.
